Data as given in paper PMC5650356.
These are yes or no findings as the source states them, for the method shown. Binding seen in cells or lysates may run through a third protein. Some results given as binding are weak or reduced against the parent protein; the word gives no strength. Where a sequence is shown, tags or fusion partners need not be part of it.

Amino acid sequences for entries named in this document (tags omitted).
UniProt Q9ULW0: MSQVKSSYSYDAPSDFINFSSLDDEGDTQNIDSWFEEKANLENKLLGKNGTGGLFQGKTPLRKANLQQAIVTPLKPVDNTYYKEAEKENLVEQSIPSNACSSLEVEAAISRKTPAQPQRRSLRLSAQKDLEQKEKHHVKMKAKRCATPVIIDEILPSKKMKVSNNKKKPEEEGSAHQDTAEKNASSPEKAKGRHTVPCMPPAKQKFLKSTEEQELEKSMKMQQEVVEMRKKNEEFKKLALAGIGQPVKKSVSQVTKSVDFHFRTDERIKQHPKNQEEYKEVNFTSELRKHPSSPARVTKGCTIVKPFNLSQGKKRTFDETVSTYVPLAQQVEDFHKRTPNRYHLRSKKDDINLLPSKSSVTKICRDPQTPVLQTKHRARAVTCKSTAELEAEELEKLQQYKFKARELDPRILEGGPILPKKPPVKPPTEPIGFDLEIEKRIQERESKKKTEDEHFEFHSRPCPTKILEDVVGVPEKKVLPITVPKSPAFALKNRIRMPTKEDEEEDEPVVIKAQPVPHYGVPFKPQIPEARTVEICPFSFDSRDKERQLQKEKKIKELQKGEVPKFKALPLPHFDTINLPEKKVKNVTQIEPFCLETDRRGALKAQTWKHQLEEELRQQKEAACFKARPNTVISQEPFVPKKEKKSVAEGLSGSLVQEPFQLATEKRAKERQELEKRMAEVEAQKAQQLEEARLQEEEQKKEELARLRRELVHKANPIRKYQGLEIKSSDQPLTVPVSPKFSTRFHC

T1: Flag-tagged FAM83D (family with sequence similarity 83, member D) (human) (UniProt Q9H4H8)
T1 sequence: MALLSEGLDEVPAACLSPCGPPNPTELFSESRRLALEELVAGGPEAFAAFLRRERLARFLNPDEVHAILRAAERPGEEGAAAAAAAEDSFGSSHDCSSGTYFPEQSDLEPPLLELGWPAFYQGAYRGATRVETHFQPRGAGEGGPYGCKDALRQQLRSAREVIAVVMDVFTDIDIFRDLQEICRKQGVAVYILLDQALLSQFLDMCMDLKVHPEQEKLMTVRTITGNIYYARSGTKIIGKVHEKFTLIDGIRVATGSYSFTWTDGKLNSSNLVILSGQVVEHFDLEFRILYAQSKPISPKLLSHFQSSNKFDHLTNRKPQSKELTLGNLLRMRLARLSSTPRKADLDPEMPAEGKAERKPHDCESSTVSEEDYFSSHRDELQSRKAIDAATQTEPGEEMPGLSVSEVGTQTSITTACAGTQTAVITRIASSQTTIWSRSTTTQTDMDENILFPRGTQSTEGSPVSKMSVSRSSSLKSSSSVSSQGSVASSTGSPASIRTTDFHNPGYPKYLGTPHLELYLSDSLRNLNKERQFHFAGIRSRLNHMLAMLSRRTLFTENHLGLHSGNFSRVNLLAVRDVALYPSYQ

T2: AURKA (aurora kinase A) (human (endogenous in AGS)) (UniProt O14965)
T2 sequence: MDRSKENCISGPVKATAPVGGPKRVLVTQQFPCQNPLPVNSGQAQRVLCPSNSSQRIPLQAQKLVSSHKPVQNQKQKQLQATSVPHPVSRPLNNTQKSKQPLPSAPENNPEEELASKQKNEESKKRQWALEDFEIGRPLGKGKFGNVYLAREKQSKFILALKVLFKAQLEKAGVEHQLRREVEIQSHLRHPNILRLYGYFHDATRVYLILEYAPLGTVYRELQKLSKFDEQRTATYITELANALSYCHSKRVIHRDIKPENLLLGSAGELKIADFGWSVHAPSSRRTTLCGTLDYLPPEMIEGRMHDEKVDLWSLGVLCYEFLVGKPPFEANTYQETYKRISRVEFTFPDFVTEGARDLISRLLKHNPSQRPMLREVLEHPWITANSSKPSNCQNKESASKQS

T3: HMMR (hyaluronan-mediated motility receptor) (human (endogenous in AGS)) (UniProt O75330)
T3 sequence: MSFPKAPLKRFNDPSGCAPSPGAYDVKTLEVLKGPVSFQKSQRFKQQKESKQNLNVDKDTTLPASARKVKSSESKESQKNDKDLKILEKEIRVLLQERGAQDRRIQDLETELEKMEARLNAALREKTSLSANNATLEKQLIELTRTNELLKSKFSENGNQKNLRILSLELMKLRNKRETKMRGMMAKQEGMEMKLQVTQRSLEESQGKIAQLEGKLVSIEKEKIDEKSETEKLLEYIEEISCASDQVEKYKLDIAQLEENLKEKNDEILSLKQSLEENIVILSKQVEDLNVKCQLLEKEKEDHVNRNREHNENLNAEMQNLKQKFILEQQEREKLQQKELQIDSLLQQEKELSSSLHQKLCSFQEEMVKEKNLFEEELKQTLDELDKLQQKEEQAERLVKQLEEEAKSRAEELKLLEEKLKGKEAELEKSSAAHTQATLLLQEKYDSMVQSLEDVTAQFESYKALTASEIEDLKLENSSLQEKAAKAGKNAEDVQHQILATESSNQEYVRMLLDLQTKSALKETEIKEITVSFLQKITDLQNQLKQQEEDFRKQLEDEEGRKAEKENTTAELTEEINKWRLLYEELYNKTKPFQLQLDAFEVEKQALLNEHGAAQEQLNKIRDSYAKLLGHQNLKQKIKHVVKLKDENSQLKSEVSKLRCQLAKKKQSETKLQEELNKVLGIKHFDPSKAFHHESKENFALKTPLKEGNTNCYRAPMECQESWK

B1: endogenous FAM83D (protein, UniProt Q9H4H8 1-585)
chain: T1 sequence
B2: HMMR (hyaluronan-mediated motility receptor) (protein, UniProt O75330 1-724)
chain: T3 sequence
B3: AURKA (aurora kinase A) (protein, UniProt O14965 1-403)
chain: T2 sequence
B4: Flag-tagged FAM83D (family with sequence similarity 83, member D) (protein, UniProt Q9H4H8 1-585)
chain: T1 sequence

Legend:
Assay in all cases: co-IP; flag-tagged AGS/FAM83D cells, mitotic (300nM nocodazole 24h, shake-off); NP-40 lysis buffer, pre-cleared; primary antibodies overnight at 4 °C, protein A/G plus agarose 4h at 4 °C; five washes in lysis buffer; Western blot
[1] = target: T1, Flag-tagged FAM83D (family with sequence similarity 83, member D) (human)
[2] = target: T2, AURKA (aurora kinase A) (human (endogenous in AGS))
[3] = target: T3, HMMR (hyaluronan-mediated motility receptor) (human (endogenous in AGS))
[4] = target: TPX2 (targeting protein for Xklp2) (human (endogenous in AGS)) (UniProt Q9ULW0)

Row | Molecule | binding [1] | binding [2] | binding [3] | binding [4]
1 | TPX2 (targeting protein for Xklp2) (from UniProt Q9ULW0 1-747) | binds |  |  | 
2 | B1 | binds |  |  | 
3 | B2 | binds |  |  | 
4 | B3 | binds |  |  | 
5 | B4 |  | binds | binds | binds
